The source of these data is publication PMC5995858.

Protein sequences, listed by entry. Tags and fused reporters are not part of them.
UniProt Q8R527: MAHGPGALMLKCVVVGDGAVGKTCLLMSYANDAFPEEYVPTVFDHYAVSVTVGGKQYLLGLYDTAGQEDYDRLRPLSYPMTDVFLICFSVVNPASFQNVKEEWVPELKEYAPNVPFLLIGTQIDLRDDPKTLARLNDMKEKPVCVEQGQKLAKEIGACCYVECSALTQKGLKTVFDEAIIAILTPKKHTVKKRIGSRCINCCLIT

The target in this experiment is GST-TC10 (mouse) (UniProt Q8R527). Nature of the experiment: pull-down; GST-TC10 coupled to glutathione-sepharose beads, incubated with lysates of transfected HEK 293T cells (TLB lysis buffer: Tris/HCl 50 mM pH 7.4, NaCl 150 mM, Triton X-100 1%); bound protein by Western blot (anti-HA or anti-GFP); only the target purified.

Results are given in words; binding and its absence hold for the method and conditions named. In cells and extracts the contact can be indirect. Some entries that bind do so weakly or less than the wild type. Tags and fused reporters may be left off the sequences shown.

B1: HA-Arhgef7 (protein, UniProt Q9ES28-5 1-782)
chain: MNSAEQTVTWLITLGVLESPKKTISDPEVFLQASLKDGVVLCRLLERLLPGTIEKVYPEPRNESECLSNIREFLRACGASLRLETFDANDLYQGQNFNKVLSSLVTLNKVTADIGLGSDSVCARPSSHRIKSFDSLGSQSSHSRTSKLLQSQYRSLDMTDNTNSQLVVRAKFNFQQTNEDELSFSKGDVIHVTRVEEGGWWEGTHNGRTGWFPSNYVREIKPSEKPVSPKSGTLKSPPKGFDTTAINKSYYNVVLQNILETEHEYSKELQSVLSTYLRPLQTSDKLSSANTSYLMGNLEEISSFQQVLVQSLEECTKSPEAQQRVGGCFLSLMPQMRTLYLAYCANHPSAVSVLTEHSEDLGEFMETKGASSPGILVLTTGLSKPFMRLDKYPTLLKELERHMEDYHPDRQDIQKSMTAFKNLSAQCQEVRKRKELELQILTEPIRSWEGDDIKTLGSVTYMSQVTIQCAGSEEKNERYLLLFPNLLLMLSASPRMSGFIYQGKLPTTGMTITKLEDSENHRNAFEISGSMIERILVSCTSQQDLHEWVEHLQKQTKVTSVSNPTIKPHSVPSHTLPSHPLTPSSKHADSKPVALTPAYHTLPHPSHHGTPHTTISWGPLEPPKTPKPWSLSCLRPAPPLRPSAALCYKEDLSKSPKTMKKLLPKRKPERKPSDEEFAVRKSTAALEEDAQILKVIEAYCTSAKTRQTLNSTWQGTDLMHNHVLADDDQSSLDSLGRRSSLSRLEPSDLSEDSEYDSIWTAHSYRMGSASRKSCCSYISHQN
For B1, the binding result is reported as “binds”.

B2: GFP-Arhgef7 (protein, UniProt Q9ES28-5 1-782)
chain: MNSAEQTVTWLITLGVLESPKKTISDPEVFLQASLKDGVVLCRLLERLLPGTIEKVYPEPRNESECLSNIREFLRACGASLRLETFDANDLYQGQNFNKVLSSLVTLNKVTADIGLGSDSVCARPSSHRIKSFDSLGSQSSHSRTSKLLQSQYRSLDMTDNTNSQLVVRAKFNFQQTNEDELSFSKGDVIHVTRVEEGGWWEGTHNGRTGWFPSNYVREIKPSEKPVSPKSGTLKSPPKGFDTTAINKSYYNVVLQNILETEHEYSKELQSVLSTYLRPLQTSDKLSSANTSYLMGNLEEISSFQQVLVQSLEECTKSPEAQQRVGGCFLSLMPQMRTLYLAYCANHPSAVSVLTEHSEDLGEFMETKGASSPGILVLTTGLSKPFMRLDKYPTLLKELERHMEDYHPDRQDIQKSMTAFKNLSAQCQEVRKRKELELQILTEPIRSWEGDDIKTLGSVTYMSQVTIQCAGSEEKNERYLLLFPNLLLMLSASPRMSGFIYQGKLPTTGMTITKLEDSENHRNAFEISGSMIERILVSCTSQQDLHEWVEHLQKQTKVTSVSNPTIKPHSVPSHTLPSHPLTPSSKHADSKPVALTPAYHTLPHPSHHGTPHTTISWGPLEPPKTPKPWSLSCLRPAPPLRPSAALCYKEDLSKSPKTMKKLLPKRKPERKPSDEEFAVRKSTAALEEDAQILKVIEAYCTSAKTRQTLNSTWQGTDLMHNHVLADDDQSSLDSLGRRSSLSRLEPSDLSEDSEYDSIWTAHSYRMGSASRKSCCSYISHQN
Turning to B2, the binding result is “binds”.
